Test results reported in patent publication US20090053745A1.
These are yes or no findings as the source states them, for the method shown. Binding seen in cells or lysates may run through a third protein. Some results given as binding are weak or reduced against the parent protein; the word gives no strength. Sequences can lack the tags named with a protein.

Tests used:
GST-cypin [1] = biological target: T1, GST-cypin (UniProt Q9WTT6); assay: competition co-immunoprecipitation of purified cypin (2 µM) and tubulin heterodimers (7 µM) with GST-Snapin added; displaced ligand: tubulin heterodimers; the strip is labelled α-Tubulin on the sheet (the text: IP with anti-tubulin, blot for cypin)
T1 sequence (looked up): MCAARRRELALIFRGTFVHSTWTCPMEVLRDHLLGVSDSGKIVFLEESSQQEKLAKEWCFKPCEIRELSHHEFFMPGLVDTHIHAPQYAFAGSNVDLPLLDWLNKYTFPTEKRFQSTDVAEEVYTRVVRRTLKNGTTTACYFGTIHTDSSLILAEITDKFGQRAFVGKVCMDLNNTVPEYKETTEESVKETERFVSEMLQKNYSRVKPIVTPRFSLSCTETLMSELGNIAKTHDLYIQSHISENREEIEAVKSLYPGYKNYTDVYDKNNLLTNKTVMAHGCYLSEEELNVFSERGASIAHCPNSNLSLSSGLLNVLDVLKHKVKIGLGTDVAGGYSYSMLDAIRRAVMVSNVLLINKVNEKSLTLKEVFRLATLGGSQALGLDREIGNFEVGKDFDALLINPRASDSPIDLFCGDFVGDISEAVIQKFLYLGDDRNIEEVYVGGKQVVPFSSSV

GST-cypin [2] = biological target: T1, GST-cypin; assay: competition co-immunoprecipitation (legend of FIG. 7)
GST-cypin [3] = biological target: T1, GST-cypin; assay: competition co-immunoprecipitation with anti-tubulin antibody, purified proteins

Measured: binding

B1: GST-snapin (entire 136 amino acids) (protein, not shown: a dimerising Fc or GST)
chain: MAGAGSAAVSGAGTPVAGPTGRDLFAEGLLEFLRPAVQQLDSHVHAVRESQVELREQIDNLATELCRINEDQKVALDLDPYVKKLLNARRRVVLVNNILQNAQERLRRLNHSVAKETARRRAMLDSGIYPPGSPGK
binds: all assays above
